These results are taken from the supplement of paper PMC8866396.

± gives the standard deviation of the averaged measurements. The list shows a part of the results. Repeats in this data set agree poorly, so a single value says little.

This test deals with IL-6-GFP PC-9. Nature of the test: IL-6-GFP fluorescence relative to DMSO control (fraction of control); higher = more IL-6-GFP expression. The settings on record: compound concentration: 10 uM; treatment time: 48 h. How it is done:
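IL-6-GFP-overexpressing PC-9 and PC-9GR EGFR-mutant lung cancer cells (3000 cells/well, 96-well) were treated for 48 h with each compound of the Selleck L2000 library at 10 uM. IL-6-GFP fluorescence was read on a high-content screening system, and viability by CCK-8 absorbance on a parallel plate set. Each value was normalised as compound well / DMSO control well; two independent replicates.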
Regarding `CCCCC(CC)CN1CN(CC(CC)CCCC)CC(C)(N)C1` (centres undefined) [Hexetidine], the IL-6-GFP fluorescence was determined as 0.83 ± 0.13.

Turning to `O=C([O-])Cc1ccccc1Nc1c(Cl)cccc1Cl.[Na+]` [Diclofenac Sodium], the IL-6-GFP fluorescence came to 0.795 ± 0.18. Then `Cc1oncc1C(=O)Nc1ccc(C(F)(F)F)cc1` [Leflunomide], with 0.816 ± 0.015; and `O=C(CCCc1ccccc1)[O][Na]` [Sodium Phenylbutyrate], with 0.995 ± 0.062; and `Cl.O=C(OCC(O)CO)c1ccccc1Nc1ccnc2cc(Cl)ccc12` (centres undefined) [Glafenine HCl], with 1.63 ± 0.33. In turn, `CC(CCC(=O)NCCS(=O)(=O)O)C1CCC2C3C(O)CC4CC(O)CCC4(C)C3CCC12C` (centres undefined) [Tauroursodeoxycholic Acid (TUDCA)] showed an IL-6-GFP fluorescence of 0.824 ± 0.27. The same measure for `CC[N+](CC)(CC)CCOc1cccc(OCC[N+](CC)(CC)CC)c1OCC[N+](CC)(CC)CC.[I-].[I-].[I-]` [Gallamine Triethiodide]: 0.945 ± 0.18. Then `O=C(O)c1ccccc1OP(=O)(O)O` [Fosfosal], with 0.83 ± 0.062; and `Cc1nc(Nc2ncc(C(=O)Nc3c(C)cccc3Cl)s2)cc(N2CCN(CCO)CC2)n1` [Dasatinib], with 1 ± 0.066; and `COc1ccc2c(c1)nc(S(=O)Cc1ncc(C)c(OC)c1C)[n]2[Na]` (centres undefined) [Omeprazole Sodium], with 0.836 ± 0.12. The same measure for `NC1CCCCC1N.O=C([O-])C(=O)[O-].[Pt+2]` (centres undefined) [Oxaliplatin]: 1.1 ± 0.56; for `CS(=O)(=O)Nc1cc2occ(NC=O)c(=O)c2cc1Oc1ccccc1` [Iguratimod]: 2.15 ± 0.35; for `CC(=O)Oc1cccc2c1C(=O)c1c(OC(C)=O)cc(C(=O)O)cc1C2=O` [Diacerein]: 0.91 ± 0.17. `Cn1cc(C2=C(c3cccc(N)c3)C(=O)NC2=O)c2ccccc21`: the IL-6-GFP fluorescence stood at 0.579 ± 0.27.
